For the experiment, the target named is ATP-binding cassette transporter A1 (ABCA1) tagged with GFP (UniProt O95477). Description: affinity purification with mass spectrometry; GFP-Trap agarose on lysate of HeLa (ABCA1-GFP) cells treated with recombinant APOE3 or APOE4 (0.2 µM) for 4 h; lysis buffer 0.5% NP40, 350 mM NaCl, 20 mM Hepes, 1.2% Triton X-100; overnight at 4 °C; washed with IP buffer (PBS, 200 mM NaCl, 1 mM EDTA, 0.5% Triton X-100, 1 mM DTT); glycine elution, TCA precipitation, mass spectrometry.

Chains of the proteins cited; added tags and fusions are not shown.
UniProt O95477: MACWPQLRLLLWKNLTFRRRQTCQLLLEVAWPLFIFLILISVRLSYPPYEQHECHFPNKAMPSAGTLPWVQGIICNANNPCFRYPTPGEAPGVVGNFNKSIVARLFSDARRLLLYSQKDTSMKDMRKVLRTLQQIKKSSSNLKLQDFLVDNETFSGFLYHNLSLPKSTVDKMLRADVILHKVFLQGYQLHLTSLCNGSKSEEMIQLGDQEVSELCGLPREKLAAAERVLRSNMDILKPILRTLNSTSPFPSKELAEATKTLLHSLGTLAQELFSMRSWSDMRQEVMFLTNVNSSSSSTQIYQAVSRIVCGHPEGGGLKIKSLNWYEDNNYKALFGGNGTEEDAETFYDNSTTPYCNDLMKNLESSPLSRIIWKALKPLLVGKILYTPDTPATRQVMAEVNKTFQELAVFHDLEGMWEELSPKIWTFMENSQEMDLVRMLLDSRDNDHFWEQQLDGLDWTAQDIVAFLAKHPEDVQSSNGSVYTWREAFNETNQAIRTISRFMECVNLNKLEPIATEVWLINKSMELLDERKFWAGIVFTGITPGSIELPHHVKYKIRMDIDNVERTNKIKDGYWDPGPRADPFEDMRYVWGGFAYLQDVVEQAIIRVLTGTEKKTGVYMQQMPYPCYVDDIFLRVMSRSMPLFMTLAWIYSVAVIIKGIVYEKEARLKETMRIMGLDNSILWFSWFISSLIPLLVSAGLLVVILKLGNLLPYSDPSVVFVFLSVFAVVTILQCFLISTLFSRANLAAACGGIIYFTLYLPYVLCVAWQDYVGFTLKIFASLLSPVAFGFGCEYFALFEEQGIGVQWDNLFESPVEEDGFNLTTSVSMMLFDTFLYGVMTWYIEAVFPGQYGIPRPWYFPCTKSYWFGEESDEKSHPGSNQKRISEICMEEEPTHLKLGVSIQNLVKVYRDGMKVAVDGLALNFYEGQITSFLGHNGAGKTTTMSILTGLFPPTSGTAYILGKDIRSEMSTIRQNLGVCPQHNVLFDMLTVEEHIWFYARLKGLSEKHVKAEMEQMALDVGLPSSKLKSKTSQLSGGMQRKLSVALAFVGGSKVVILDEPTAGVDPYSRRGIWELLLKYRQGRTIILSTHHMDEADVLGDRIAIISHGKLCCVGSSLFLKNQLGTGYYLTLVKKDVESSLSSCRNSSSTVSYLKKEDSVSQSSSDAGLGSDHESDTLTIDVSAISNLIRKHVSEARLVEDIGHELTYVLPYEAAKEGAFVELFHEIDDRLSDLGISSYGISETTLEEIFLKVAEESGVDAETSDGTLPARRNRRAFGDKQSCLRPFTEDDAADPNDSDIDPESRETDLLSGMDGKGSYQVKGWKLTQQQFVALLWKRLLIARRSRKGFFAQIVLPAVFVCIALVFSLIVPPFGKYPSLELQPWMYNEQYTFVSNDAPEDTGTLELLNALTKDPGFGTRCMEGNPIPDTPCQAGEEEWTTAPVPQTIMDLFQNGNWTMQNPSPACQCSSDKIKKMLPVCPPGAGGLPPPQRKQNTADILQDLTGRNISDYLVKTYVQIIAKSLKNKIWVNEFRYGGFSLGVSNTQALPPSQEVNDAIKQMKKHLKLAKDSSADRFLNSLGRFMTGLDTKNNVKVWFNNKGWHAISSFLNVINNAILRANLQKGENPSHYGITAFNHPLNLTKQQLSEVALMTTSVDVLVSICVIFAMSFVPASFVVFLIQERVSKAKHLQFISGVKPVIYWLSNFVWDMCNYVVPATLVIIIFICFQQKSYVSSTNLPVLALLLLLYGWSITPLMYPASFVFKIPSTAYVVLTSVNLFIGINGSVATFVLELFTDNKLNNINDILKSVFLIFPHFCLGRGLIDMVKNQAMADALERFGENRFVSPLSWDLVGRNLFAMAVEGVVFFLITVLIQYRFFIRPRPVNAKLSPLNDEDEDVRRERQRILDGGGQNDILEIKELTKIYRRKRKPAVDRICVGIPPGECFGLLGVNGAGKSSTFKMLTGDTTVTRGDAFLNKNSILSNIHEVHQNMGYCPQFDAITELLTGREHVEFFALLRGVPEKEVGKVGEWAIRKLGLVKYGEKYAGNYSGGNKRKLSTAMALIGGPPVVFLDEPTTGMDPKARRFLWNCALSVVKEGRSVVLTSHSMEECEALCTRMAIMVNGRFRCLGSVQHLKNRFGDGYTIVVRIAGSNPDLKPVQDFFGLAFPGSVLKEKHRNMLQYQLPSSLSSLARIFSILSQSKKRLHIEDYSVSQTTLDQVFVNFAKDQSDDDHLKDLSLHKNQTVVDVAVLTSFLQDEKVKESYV
UniProt Q03135: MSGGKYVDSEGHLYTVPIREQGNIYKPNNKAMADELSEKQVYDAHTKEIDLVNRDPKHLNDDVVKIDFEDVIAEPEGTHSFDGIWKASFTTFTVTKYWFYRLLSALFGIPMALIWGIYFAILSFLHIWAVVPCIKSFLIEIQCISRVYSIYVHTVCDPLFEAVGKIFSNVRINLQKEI
UniProt P63010: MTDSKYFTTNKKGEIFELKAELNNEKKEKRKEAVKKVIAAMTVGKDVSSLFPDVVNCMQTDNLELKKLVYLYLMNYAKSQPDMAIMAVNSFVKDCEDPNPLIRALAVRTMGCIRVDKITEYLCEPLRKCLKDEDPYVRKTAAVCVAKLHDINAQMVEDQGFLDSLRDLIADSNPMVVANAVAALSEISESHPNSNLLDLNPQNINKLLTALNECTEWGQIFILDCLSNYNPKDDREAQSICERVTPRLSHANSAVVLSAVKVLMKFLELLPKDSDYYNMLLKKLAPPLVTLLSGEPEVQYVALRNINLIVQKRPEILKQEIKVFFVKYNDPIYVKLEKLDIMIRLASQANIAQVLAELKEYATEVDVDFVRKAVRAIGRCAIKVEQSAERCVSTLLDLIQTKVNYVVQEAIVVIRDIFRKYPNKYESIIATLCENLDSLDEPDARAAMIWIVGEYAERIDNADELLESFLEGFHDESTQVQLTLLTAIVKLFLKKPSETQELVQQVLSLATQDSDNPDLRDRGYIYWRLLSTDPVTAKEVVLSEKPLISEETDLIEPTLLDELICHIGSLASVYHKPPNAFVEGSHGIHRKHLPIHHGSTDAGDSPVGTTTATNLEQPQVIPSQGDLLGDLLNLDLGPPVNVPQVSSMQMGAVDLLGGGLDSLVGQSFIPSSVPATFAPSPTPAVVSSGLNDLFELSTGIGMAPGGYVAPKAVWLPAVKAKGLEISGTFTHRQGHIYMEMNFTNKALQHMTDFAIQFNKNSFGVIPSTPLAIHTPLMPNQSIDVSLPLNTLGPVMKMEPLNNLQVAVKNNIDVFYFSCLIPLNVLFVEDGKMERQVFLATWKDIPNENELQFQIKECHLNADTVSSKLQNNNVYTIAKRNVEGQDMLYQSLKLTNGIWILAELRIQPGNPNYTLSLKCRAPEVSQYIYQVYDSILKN

Results on two substances are retold here after article PMC11792374.

These are yes or no findings as the source states them, for the method shown. In cells and extracts the contact can be indirect. These calls come from enrichment with a bait or labelling near it, and not all partners need be listed.

Turning to Caveolin-1 (from UniProt Q03135 1-178), the binding result is “binds”. With “adaptor-related protein complex 2 subunit beta 1 (from UniProt P63010 1-937)” the entry was “binds”.
